Experimental data: PubChem BioAssay AID686938 (Drosophila RNAi Screening Center, 2013)
Assay: 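Fly genes required for calcium entry once internal stores are emptied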 (primary screen). Cell system: Drosophila S2R+ cells. Knock-down reagent: long dsRNA against Drosophila genes, about 0.25 µg dsRNA per well, roughly 10,000 cells. Time to read-out: 5 days of knock-down before the calcium assay. Conditions: thapsigargin (SERCA pump blocker) to empty calcium stores; entry signal taken 4 min after adding it. Detection: 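Per-well fluo-4 fluorescence in two replicates, unnormalised, measured in resting cells and 4 min after store depletion by the SERCA blocker thapsigargin; ratio of the two present in few wells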. Direction: calcium entry signal: higher = stronger calcium signal after store depletion; entry to resting ratio: higher = more calcium entry relative to resting level; resting calcium signal: higher = higher resting calcium signal. Hit rule: 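Called when the plate z-score of the entry-to-rest ratio, mean of duplicates, falls below −3; wells with low overall dye signal (Fmax z below −2) or more than five off-targets excluded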. Calls: active = strongly reduced calcium entry; inactive = no strong reduction.
The deposit covers about 23,000 reagents; shown is an unselected part of those with a known target gene and a result. In the full data, 75 (0.33%) are marked active. 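Raw plate signals without normalisation; calls rest on plate z-scores that were not deposited; ratio present for only 364 wells.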 Entries without a mark were called inactive. Names joined by + are all predicted targets of the reagent. Reagent sequences are not shown. Not given: the dose of the treatment.

Target gene | DRSC id | calcium entry signal, replicate 1 (fluorescence units) | calcium entry signal, replicate 2 (fluorescence units) | entry to resting ratio | resting calcium signal, replicate 1 (fluorescence units) | resting calcium signal, replicate 2 (fluorescence units)
zld | DRSC19486 | 4.97e7 | 3.81e7 | – | 2.25e7 | 1.59e7
zld | DRSC21721 | 3.30e7 | 3.34e7 | – | 1.67e7 | 1.53e7
zld | DRSC23098 | 4.70e7 | 4.29e7 | – | 2.01e7 | 1.64e7
CG15731 | DRSC19698 | 4.33e7 | 4.09e7 | – | 2.09e7 | 1.96e7
CG15731 | DRSC21820 | 3.48e7 | 3.62e7 | – | 1.99e7 | 1.59e7
CG7352 | DRSC16233 | 4.80e7 | 3.88e7 | – | 2.09e7 | 1.78e7
Ekar | DRSC17161 | 5.48e7 | 6.03e7 | 2.3 | 2.41e7 | 2.57e7
Nufip | DRSC10397 | 4.63e7 | 4.86e7 | – | 2.07e7 | 3.29e7
lncRNA:CR31647 | DRSC21903 | 2.97e7 | 4.80e7 | – | 1.41e7 | 2.37e7
scaf | DRSC04849 | 3.25e7 | – | – | 1.65e7 | –
GNBP-like3 | DRSC06385 | 3.63e7 | 3.54e7 | – | 1.72e7 | 1.99e7
CG12491 + CG34105 | DRSC04008 | 2.34e7 | 3.79e7 | – | 1.21e7 | 1.54e7
CG12491 + CG34105 | DRSC04124 | 3.75e7 | 5.01e7 | – | 2.03e7 | 2.38e7
PKD | DRSC16200 | 3.86e7 | 5.50e7 | – | 5.66e7 | 2.47e7
CG8910 | DRSC07414 | 3.85e7 | 5.98e7 | – | 1.64e7 | 2.49e7
CG34124 | DRSC00849 | 3.81e7 | 4.27e7 | – | 1.96e7 | 2.01e7
CG14126 (retired record) | DRSC10130 | 3.02e7 | 4.54e7 | – | 1.66e7 | 2.06e7
CG34417 | DRSC17467 | 3.42e7 | 3.52e7 | – | 1.71e7 | 1.65e7
CG34417 | DRSC18332 | 2.51e7 | 4.60e7 | – | 1.27e7 | 2.23e7
CG34417 | DRSC18333 | 3.38e7 | 3.53e7 | – | 1.72e7 | 1.61e7
Eig71Ee | DRSC11152 | 4.18e7 | 4.12e7 | – | 1.76e7 | 1.45e7
Plekhm1 | DRSC04527 | 4.52e7 | 5.05e7 | – | 2.17e7 | 2.13e7
Dpck | DRSC12575 | 4.43e7 | 3.53e7 | – | 2.20e7 | 1.73e7

4 consecutive records from above, for reference:
Target gene | DRSC id | calcium entry signal, replicate 1 (fluorescence units) | calcium entry signal, replicate 2 (fluorescence units) | entry to resting ratio | resting calcium signal, replicate 1 (fluorescence units) | resting calcium signal, replicate 2 (fluorescence units)
CG15731 | DRSC19698 | 4.33e7 | 4.09e7 | – | 2.09e7 | 1.96e7
CG15731 | DRSC21820 | 3.48e7 | 3.62e7 | – | 1.99e7 | 1.59e7
CG7352 | DRSC16233 | 4.80e7 | 3.88e7 | – | 2.09e7 | 1.78e7
Ekar | DRSC17161 | 5.48e7 | 6.03e7 | 2.3 | 2.41e7 | 2.57e7

The listing continues:
Target gene | DRSC id | calcium entry signal, replicate 1 (fluorescence units) | calcium entry signal, replicate 2 (fluorescence units) | entry to resting ratio | resting calcium signal, replicate 1 (fluorescence units) | resting calcium signal, replicate 2 (fluorescence units)
CG13728 | DRSC10056 | 3.97e7 | 4.60e7 | – | 1.68e7 | 1.94e7
CG6685 | DRSC10695 | 2.71e7 | 3.79e7 | – | 1.43e7 | 1.64e7
spict | DRSC02157 | 6.12e7 | – | – | 2.99e7 | –
CG2765 | DRSC04315 | 2.25e7 | – | – | 1.21e7 | –
AnxB9 | DRSC14111 | 4.08e7 | 3.93e7 | – | 1.84e7 | 1.83e7
CG34256 | DRSC09582 | 2.28e7 | 2.21e7 | – | 1.13e7 | 1.09e7
Shab | DRSC08013 | 3.85e7 | 3.82e7 | – | 2.38e7 | 1.75e7
Shab | DRSC08643 | 4.61e7 | 3.86e7 | – | 2.10e7 | 1.75e7
Shab | DRSC08699 | 4.04e7 | 3.47e7 | – | 1.89e7 | 1.83e7
AdamTS-B | DRSC17402 | 2.80e7 | 3.21e7 | – | 1.29e7 | 1.40e7
AdamTS-B | DRSC18346 | 3.37e7 | 3.71e7 | – | 1.59e7 | 1.70e7
14-3-3zeta | DRSC05028 | 4.41e7 | 4.15e7 | – | 2.07e7 | 1.97e7
CG11878 | DRSC14422 | 3.74e7 | 3.86e7 | – | 2.09e7 | 1.51e7
kz | DRSC18786 | 2.12e7 | 2.83e7 | 1.8 | 1.15e7 | 1.37e7
CG17819 | DRSC15279 | 4.28e7 | 5.25e7 | – | 6.44e7 | 2.40e7
CG33061 | DRSC09938 | 5.41e7 | 6.97e7 | – | 2.46e7 | 2.72e7
CG33061 | DRSC22897 | 3.73e7 | 4.06e7 | – | 2.21e7 | 1.77e7
